Binding data for 4 molecules are collected here from PMC8627557.

The chains behind the UniProt entries cited, without tags or fusion partners. Where a name states a change or a piece, a line headed by the entry shows the natural chain unless it says otherwise.
UniProt Q9H3S7: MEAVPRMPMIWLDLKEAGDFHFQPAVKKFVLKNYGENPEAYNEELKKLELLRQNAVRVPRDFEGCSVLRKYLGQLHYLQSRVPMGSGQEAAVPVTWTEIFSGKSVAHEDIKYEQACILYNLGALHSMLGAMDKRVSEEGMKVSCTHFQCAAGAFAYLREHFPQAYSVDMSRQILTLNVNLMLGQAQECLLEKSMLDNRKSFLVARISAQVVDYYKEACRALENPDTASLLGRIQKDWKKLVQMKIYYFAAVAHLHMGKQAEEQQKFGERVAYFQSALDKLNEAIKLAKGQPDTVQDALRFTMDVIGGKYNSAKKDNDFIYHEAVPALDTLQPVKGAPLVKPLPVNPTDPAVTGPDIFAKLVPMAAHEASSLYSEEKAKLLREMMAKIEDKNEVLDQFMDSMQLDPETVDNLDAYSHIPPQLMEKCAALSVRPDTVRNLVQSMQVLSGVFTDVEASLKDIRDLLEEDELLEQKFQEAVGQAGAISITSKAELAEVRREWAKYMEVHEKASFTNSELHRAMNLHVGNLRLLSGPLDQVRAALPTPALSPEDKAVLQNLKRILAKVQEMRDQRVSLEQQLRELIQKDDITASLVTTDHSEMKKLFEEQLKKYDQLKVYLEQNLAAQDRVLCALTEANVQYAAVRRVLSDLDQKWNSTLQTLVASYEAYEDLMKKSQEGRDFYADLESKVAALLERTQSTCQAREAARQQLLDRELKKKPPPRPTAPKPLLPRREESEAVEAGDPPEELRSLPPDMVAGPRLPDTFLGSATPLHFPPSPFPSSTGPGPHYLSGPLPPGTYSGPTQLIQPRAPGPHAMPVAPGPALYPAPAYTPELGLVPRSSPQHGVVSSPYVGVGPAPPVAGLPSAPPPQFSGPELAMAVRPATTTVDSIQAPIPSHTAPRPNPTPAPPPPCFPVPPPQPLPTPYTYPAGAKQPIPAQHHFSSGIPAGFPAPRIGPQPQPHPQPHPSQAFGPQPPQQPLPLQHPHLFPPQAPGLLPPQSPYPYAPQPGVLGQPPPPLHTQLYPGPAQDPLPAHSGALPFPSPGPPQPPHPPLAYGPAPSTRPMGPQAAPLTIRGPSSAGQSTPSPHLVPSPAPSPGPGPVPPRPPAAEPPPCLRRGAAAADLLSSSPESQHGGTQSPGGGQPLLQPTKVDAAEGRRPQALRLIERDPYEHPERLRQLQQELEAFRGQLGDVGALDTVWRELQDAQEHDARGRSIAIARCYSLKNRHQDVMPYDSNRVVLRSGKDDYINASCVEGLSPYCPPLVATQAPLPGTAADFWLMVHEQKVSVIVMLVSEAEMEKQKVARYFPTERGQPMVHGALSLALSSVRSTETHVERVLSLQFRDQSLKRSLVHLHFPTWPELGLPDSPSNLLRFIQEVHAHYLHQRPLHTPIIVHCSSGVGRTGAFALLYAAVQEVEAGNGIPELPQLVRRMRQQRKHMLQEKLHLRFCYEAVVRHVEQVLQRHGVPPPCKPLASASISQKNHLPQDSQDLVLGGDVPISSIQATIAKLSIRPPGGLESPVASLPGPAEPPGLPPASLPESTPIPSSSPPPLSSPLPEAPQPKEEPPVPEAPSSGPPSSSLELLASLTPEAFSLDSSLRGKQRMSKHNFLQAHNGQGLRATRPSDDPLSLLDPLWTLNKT

No constants are given. Whether binding was seen depends on the method and setting. For part of these data: In cells and extracts the contact can be indirect. Some results given as binding are weak or reduced against the parent protein; the word gives no strength. Where a sequence is shown, tags or fusion partners need not be part of it.

Test [1] deals with full-length HA–HD-PTP (human) (UniProt Q9H3S7). Briefly: co-IP; lysates of HEK293T cells transfected with HA–HD-PTP constructs (with co-transfected GFP–Rabaptin-5 constructs, or endogenous Rabaptin-5); IP with anti-HA in IP buffer (25 mM Tris-HCl pH 7.5, 150 mM NaCl, 0.5% IGEPAL CA-630), 4°C; western blot.
In a further test the target is FKBP–HD-PTP–Myc (UniProt Q9H3S7). Briefly: mitochondrial relocation assay (rapamycin-induced FKBP/FRB targeting, immunofluorescence); HeLa cells expressing Mito-FRB, FKBP–HD-PTP–Myc and GFP or GFP–Rabaptin-5; 1 µM rapamycin for 180 min.
Test [2] has as its target HA–HD-PTP L202D/I206D (human) (UniProt Q9H3S7). Nature of the test: co-IP; lysates of HEK293T cells transfected with HA–HD-PTP constructs (with co-transfected GFP–Rabaptin-5 constructs, or endogenous Rabaptin-5); IP with anti-HA in IP buffer (25 mM Tris-HCl pH 7.5, 150 mM NaCl, 0.5% IGEPAL CA-630), 4°C; western blot. A general note: A western blot detects proteins with antibodies after separation by electrophoresis.

B1: GFP–Rabaptin-5 CC2-2 (domain or fragment, UniProt Q15276 661-805)
chain: SLQQAEDFILPDTTEALRELVLKYREDIINVRTAADHVEEKLKAEILFLKEQIQAEQCLKENLEETLQLEIENCKEEIASISSLKAELERIKVEKGQLESTLREKSQQLESLQEIKISLEEQLKKETAAKATVEQLMFEEKNKAQ
Consider B1, for which the binding entry in test [1] is recorded as “binds”.

B2: GFP–Rabaptin-5 (protein, UniProt Q15276 1-862)
chain: MAQPGPASQPDVSLQQRVAELEKINAEFLRAQQQLEQEFNQKRAKFKELYLAKEEDLKRQNAVLQAAQDDLGHLRTQLWEAQAEMENIKAIATVSENTKQEAIDEVKRQWREEVASLQAVMKETVRDYEHQFHLRLEQERTQWAQYRESAEREIADLRRRLSEGQEEENLENEMKKAQEDAEKLRSVVMPMEKEIAALKDKLTEAEDKIKELEASKVKELNHYLEAEKSCRTDLEMYVAVLNTQKSVLQEDAEKLRKELHEVCHLLEQERQQHNQLKHTWQKANDQFLESQRLLMRDMQRMEIVLTSEQLRQVEELKKKDQEDDEQQRLNKRKDHKKADVEEEIKIPVVCALTQEESSAQLSNEEEHLDSTRGSVHSLDAGLLLPSGDPFSKSDNDMFKDGLRRAQSTDSLGTSGSLQSKALGYNYKAKSAGNLDESDFGPLVGADSVSENFDTASLGSLQMPSGFMLTKDQERAIKAMTPEQEETASLLSSVTQGMESAYVSPSGYRLVSETEWNLLQKEVHNAGNKLGRRCDMCSNYEKQLQGIQIQEAETRDQVKKLQLMLRQANDQLEKTMKDKQELEDFIKQSSEDSSHQISALVLRAQASEILLEELQQGLSQAKRDVQEQMAVLMQSREQVSEELVRLQKDNDSLQGKHSLHVSLQQAEDFILPDTTEALRELVLKYREDIINVRTAADHVEEKLKAEILFLKEQIQAEQCLKENLEETLQLEIENCKEEIASISSLKAELERIKVEKGQLESTLREKSQQLESLQEIKISLEEQLKKETAAKATVEQLMFEEKNKAQRLQTELDVSEQVQRDFVKLSQTLQVQLERIRQADSLERIRAILNDTKLTDINQLPET
Take B2: the binding entry (in the test with FKBP–HD-PTP–Myc; in test [2]; in test [1]) was “binds” each time.

B3: endogenous Rabaptin-5 (protein, UniProt Q15276 1-862)
chain: MAQPGPASQPDVSLQQRVAELEKINAEFLRAQQQLEQEFNQKRAKFKELYLAKEEDLKRQNAVLQAAQDDLGHLRTQLWEAQAEMENIKAIATVSENTKQEAIDEVKRQWREEVASLQAVMKETVRDYEHQFHLRLEQERTQWAQYRESAEREIADLRRRLSEGQEEENLENEMKKAQEDAEKLRSVVMPMEKEIAALKDKLTEAEDKIKELEASKVKELNHYLEAEKSCRTDLEMYVAVLNTQKSVLQEDAEKLRKELHEVCHLLEQERQQHNQLKHTWQKANDQFLESQRLLMRDMQRMEIVLTSEQLRQVEELKKKDQEDDEQQRLNKRKDHKKADVEEEIKIPVVCALTQEESSAQLSNEEEHLDSTRGSVHSLDAGLLLPSGDPFSKSDNDMFKDGLRRAQSTDSLGTSGSLQSKALGYNYKAKSAGNLDESDFGPLVGADSVSENFDTASLGSLQMPSGFMLTKDQERAIKAMTPEQEETASLLSSVTQGMESAYVSPSGYRLVSETEWNLLQKEVHNAGNKLGRRCDMCSNYEKQLQGIQIQEAETRDQVKKLQLMLRQANDQLEKTMKDKQELEDFIKQSSEDSSHQISALVLRAQASEILLEELQQGLSQAKRDVQEQMAVLMQSREQVSEELVRLQKDNDSLQGKHSLHVSLQQAEDFILPDTTEALRELVLKYREDIINVRTAADHVEEKLKAEILFLKEQIQAEQCLKENLEETLQLEIENCKEEIASISSLKAELERIKVEKGQLESTLREKSQQLESLQEIKISLEEQLKKETAAKATVEQLMFEEKNKAQRLQTELDVSEQVQRDFVKLSQTLQVQLERIRQADSLERIRAILNDTKLTDINQLPET
With B3, in test [1], the binding result is “binds”.

B4: GFP–Rabaptin-5 ΔR4BD (protein, UniProt Q15276)
chain: MAQPLEQERTQWAQYRESAEREIADLRRRLSEGQEEENLENEMKKAQEDAEKLRSVVMPMEKEIAALKDKLTEAEDKIKELEASKVKELNHYLEAEKSCRTDLEMYVAVLNTQKSVLQEDAEKLRKELHEVCHLLEQERQQHNQLKHTWQKANDQFLESQRLLMRDMQRMEIVLTSEQLRQVEELKKKDQEDDEQQRLNKRKDHKKADVEEEIKIPVVCALTQEESSAQLSNEEEHLDSTRGSVHSLDAGLLLPSGDPFSKSDNDMFKDGLRRAQSTDSLGTSGSLQSKALGYNYKAKSAGNLDESDFGPLVGADSVSENFDTASLGSLQMPSGFMLTKDQERAIKAMTPEQEETASLLSSVTQGMESAYVSPSGYRLVSETEWNLLQKEVHNAGNKLGRRCDMCSNYEKQLQGIQIQEAETRDQVKKLQLMLRQANDQLEKTMKDKQELEDFIKQSSEDSSHQISALVLRAQASEILLEELQQGLSQAKRDVQEQMAVLMQSREQVSEELVRLQKDNDSLQGKHSLHVSLQQAEDFILPDTTEALRELVLKYREDIINVRTAADHVEEKLKAEILFLKEQIQAEQCLKENLEETLQLEIENCKEEIASISSLKAELERIKVEKGQLESTLREKSQQLESLQEIKISLEEQLKKETAAKATVEQLMFEEKNKAQRLQTELDVSEQVQRDFVKLSQTLQVQLERIRQADSLERIRAILNDTKLTDINQLPET
On to B4, for which the binding result in test [1] is “binds”.
